Results are given in words; binding and its absence hold for the method and conditions named. Some binding calls cover weakened binding; strength is not graded here. For some of these results: Tags and fused reporters may be left off the sequences shown.

By UniProt entry, the sequences of proteins in these tests, tags left out. Where a name states a change or a piece, a line headed by the entry shows the natural chain unless it says otherwise. Chains listed by the source or under a name are the forms on record and can include a tag or linker. Residues count along the entry.
Cdc42Δ7Q61L (P60953, form named): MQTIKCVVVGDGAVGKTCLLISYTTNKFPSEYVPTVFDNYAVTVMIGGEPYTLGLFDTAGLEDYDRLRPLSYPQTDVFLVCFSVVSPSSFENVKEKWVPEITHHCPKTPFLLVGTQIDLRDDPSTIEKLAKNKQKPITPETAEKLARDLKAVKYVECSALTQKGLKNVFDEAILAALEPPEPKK
UniProt Q6NX29, residues 197-255: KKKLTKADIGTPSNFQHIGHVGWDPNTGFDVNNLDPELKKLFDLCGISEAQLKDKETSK

Assay [1] has as its target T1, His-SNAP-TOCA1 F-BAR (residues 1–287) (Xenopus tropicalis) (UniProt Q6GUF4).
T1 sequence: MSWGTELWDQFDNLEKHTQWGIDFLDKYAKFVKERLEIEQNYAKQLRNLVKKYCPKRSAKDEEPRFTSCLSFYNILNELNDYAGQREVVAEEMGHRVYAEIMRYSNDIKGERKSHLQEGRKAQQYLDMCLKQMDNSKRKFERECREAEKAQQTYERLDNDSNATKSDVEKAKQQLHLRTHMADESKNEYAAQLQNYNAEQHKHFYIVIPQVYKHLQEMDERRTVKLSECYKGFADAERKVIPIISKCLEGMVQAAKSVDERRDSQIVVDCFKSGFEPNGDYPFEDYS
Description: scintillation proximity assay; direct binding; 30 nM GST-PAK, GST-ACK or His-tagged TOCA1 construct attached to a fluoromicrosphere via an anti-GST or anti-His antibody; Cdc42·[3H]GTP at increasing concentrations; apparent Kd from a direct binding isotherm; both purified.

For assay [2], the target named is T2, His-SNAP-TOCA1 (full-length X. tropicalis TOCA1) (Xenopus tropicalis) (UniProt Q6GUF4).
T2 sequence: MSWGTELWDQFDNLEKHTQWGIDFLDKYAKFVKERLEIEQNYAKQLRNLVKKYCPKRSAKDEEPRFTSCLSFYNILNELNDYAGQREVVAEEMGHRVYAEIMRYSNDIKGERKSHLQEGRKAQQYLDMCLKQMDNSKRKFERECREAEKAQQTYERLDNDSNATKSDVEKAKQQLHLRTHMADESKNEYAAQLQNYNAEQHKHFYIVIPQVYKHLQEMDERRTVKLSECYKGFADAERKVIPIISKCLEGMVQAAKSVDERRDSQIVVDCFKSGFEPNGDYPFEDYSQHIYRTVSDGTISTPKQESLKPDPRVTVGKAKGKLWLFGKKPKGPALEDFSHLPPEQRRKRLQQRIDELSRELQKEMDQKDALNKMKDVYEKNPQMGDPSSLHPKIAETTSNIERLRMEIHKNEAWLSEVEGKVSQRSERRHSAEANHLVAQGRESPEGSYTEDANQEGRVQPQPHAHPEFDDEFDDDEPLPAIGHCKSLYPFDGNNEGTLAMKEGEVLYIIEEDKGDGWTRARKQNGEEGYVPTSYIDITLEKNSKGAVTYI
The description is as above.

For assay [3], the target named is T3, His-SNAP-TOCA1 ΔSH3 (residues 1–480) (Xenopus tropicalis) (UniProt Q6GUF4).
T3 sequence: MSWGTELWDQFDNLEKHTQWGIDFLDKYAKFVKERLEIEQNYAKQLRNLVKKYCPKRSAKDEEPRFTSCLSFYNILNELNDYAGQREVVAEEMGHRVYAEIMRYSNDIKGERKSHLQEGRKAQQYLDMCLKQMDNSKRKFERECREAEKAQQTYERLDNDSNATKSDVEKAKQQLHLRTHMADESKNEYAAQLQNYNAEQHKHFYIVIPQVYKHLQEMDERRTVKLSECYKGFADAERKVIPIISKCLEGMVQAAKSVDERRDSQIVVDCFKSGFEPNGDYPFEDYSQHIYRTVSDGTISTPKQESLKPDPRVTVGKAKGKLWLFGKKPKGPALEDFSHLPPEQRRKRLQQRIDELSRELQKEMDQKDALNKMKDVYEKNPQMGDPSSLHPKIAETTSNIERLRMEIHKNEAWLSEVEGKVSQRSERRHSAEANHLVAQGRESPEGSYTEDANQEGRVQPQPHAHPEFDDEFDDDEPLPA
Described as above.

Assay [4] concerns the target Cdc42Δ7Q61L (human) (UniProt P60953). Nature of the assay: NMR titration; 15N and 13C HSQC at 25 °C in 50 mM sodium phosphate, pH 5.5, 25 mM NaCl, 5 mM MgCl2, 5 mM DTT, 10% D2O; 15N-HR1 with unlabelled Cdc42Δ7Q61L·GMPPNP, or 15N-Cdc42Δ7Q61L·GMPPNP with unlabelled HR1 and/or N-WASP GBD; both purified.

As for “Cdc42Δ7Q61L (from UniProt P60953 1-184) (domain or fragment)”, the results for the binding entry in assay [1], in assay [2] and in assay [3] were “no binding”, “binds weakly” and “binds weakly”, respectively.
Take “N-WASP G protein-binding domain (GBD) (residues 197–255) (from UniProt Q6NX29 197-255) (domain or fragment)”: the binding entry in assay [4] is recorded as “binds”.

(Values after article PMC4919469.)
